Measurements published in PubChem BioAssay AID493085 (Broad Institute, 2011).
The campaign covered roughly 2,400 compounds. About 360 (15%) were called active. This list was built around the results that the source calls inconclusive (neither active nor inactive); the mix of calls is not that of the screen.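 The calls were made as follows: active = falling-signal curve with half-maximal concentration at or below ten times the top tested dose; inconclusive = flat fit at 30 to 70% inhibition, or poor fit; inactive = signal rise, flat within 30%, or potency beyond limit.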

Assay: dox-induced RFP signal loss in R4-3T3 cells – cell-based, NIH3T3 R4, HSE-GFP and Tet-On RFP, cherry-pick, set 3, dose response (AID 493085);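 also: cells heat shocked 2 h at 42 °C with doxycycline to induce reporters; 0% = neutral control wells and -100% = didemnin B control at 400 nM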
Conditions: NIH3T3 R4 HSE-GFP/Tet-RFP reporter, fluorescence, 48 h; at 19.5 µM (top of the series)

SMILES | activity change, negative = inhibition
S=C1SCN(Cc2cccnc2)CN1Cc1cccnc1 | inconclusive: -28.2%
Clc1ccc(Nc2ccc(Cl)nn2)cc1 | inconclusive: -0.781%
O=C(Cn1nc2ccccc2n1)N/N=C/c1cc([N+](=O)[O-])ccc1O | inconclusive: 6%
c1ccc(-c2ccc(-c3nc(-c4ccccn4)no3)cc2)cc1 | inconclusive: -9.89%
CCOc1ccc(N=C(NN)c2ccc3ccccc3n2)cc1 | inactive: -3.17%
COc1cccc(-c2cccc(NC(=O)C3CCN(Cc4ccon4)CC3)c2)c1 | inactive: -3.89%
Cn1c(N2CCOCC2)nc(-c2ccccc2)c1-c1ccccc1 | inactive: -9.58%
COc1ccc(OC)c2sc(N(CCCN(C)C)C(=O)c3ccc(S(=O)(=O)N4CCc5ccccc5C4)cc3)nc12 | inconclusive: -101%
COc1cccc(NC(=O)CCSc2nnc3scc(-c4ccccc4)n23)c1 | inactive: -3.84%
CCC1CCCCN1C(=O)c1cc2c(=O)n3cccc(C)c3nc2s1 (centres undefined) | inactive: -4.77%
COc1ccc(C(=O)NNC(=O)c2ccccn2)cc1 | inconclusive: 10.6%
CN1N=C2c3ccccc3CCC2C1c1ccc(C(F)(F)F)cc1 (centres undefined) | inconclusive: 48.5%
Cc1ccnc(N2CCCC(C(=O)NCc3cccs3)C2)n1 (centres undefined) | inactive: -3.11%
CC(C)(C)c1ccccc1NC(=O)NC1CCN(Cc2c(F)cccc2Cl)CC1 | inactive: 6.36%
Oc1ccc(Nc2nc3ccccc3nc2Nc2ccc(O)cc2)cc1 | inconclusive: -93.3%
Cc1cccc(N2CCN(Cc3nc(-c4ccccc4Cl)oc3C)CC2)n1 | inactive: 1.41%
CCOc1ccc(NC(=S)Nc2ccc(OC(F)(F)F)cc2)cc1 | inactive: -9.64%
O=C(O)c1cccc(COc2ccc3c(c2)CCC3)c1 | inconclusive: 19.3%
CCOC(=O)c1c(C)[nH]c(C2=NNC(=Nc3cccc(Cl)c3)SC2)c1C | inactive: 6.15%
COc1ccc(/C=C/C(=O)Nc2ccccc2C(=O)NCC(c2ccc(OC)cc2)N(C)C)cc1 (centres undefined) | inconclusive: 116%
COc1ccc(-c2nn(-c3ccccc3)cc2/C=C(\CC(=O)O)c2nc3ccccc3s2)cc1OC | inconclusive: -11.2%
O=C(CCl)N=c1sccn1Cc1ccc(Cl)cc1Cl | inconclusive: -29.8%

Some of the entries so far, as tab-separated lines:
SMILES	activity change, negative = inhibition
S=C1SCN(Cc2cccnc2)CN1Cc1cccnc1	inconclusive: -28.2%
Clc1ccc(Nc2ccc(Cl)nn2)cc1	inconclusive: -0.781%
O=C(Cn1nc2ccccc2n1)N/N=C/c1cc([N+](=O)[O-])ccc1O	inconclusive: 6%

Remaining list, next part.

SMILES | activity change, negative = inhibition
CC(=O)c1ccc(NC(=O)C(C)n2nc(-c3ccccc3)c3cc(Cl)ccc32)cc1 (centres undefined) | inactive: -1.25%
COc1cc(C2CC(c3cccs3)=NN2C(=O)CCl)ccc1OC(F)F (centres undefined) | inconclusive: -40.2%
CCCCNC(=O)C(=O)N/N=C/c1ccc(C(=O)OC)cc1 | inconclusive: -8.74%
c1cncc(-c2nnc(SCc3nc4ccccc4[nH]3)o2)c1 | inconclusive: 4.8%
CCCSc1nnc(CNS(=O)(=O)c2ccc(C)cc2)n1C | inconclusive: 15.3%
N#Cc1c(N)n(-c2ccccc2N)c2nc3ccccc3nc12 | inconclusive: 39%
CCOC(=O)c1cccc(NC(=O)C2CCN(c3ncnc4c3nc3n4CCCCC3)CC2)c1 | inconclusive: -61.6%
Cn1cccc1C(=O)NC(=O)COC(=O)C12CC3CC(CC(O)(C3)C1)C2 | inconclusive: -20.5%
O=C(CSc1ccccc1)Nc1cccc(NC(=O)c2ccco2)c1 | inactive: -6.38%
CCCc1cc(=O)oc2cc(C)cc(OCC(=O)NCCCn3ccnc3)c12 | inactive: -7.06%
COc1ccc(-n2c(-c3cccc(OC)c3)nc(=S)c3c2CCCC3)cc1 | inactive: -11.1%
N#Cc1c(NC(=O)CSc2ncccn2)oc(-c2ccccc2)c1-c1ccccc1 | inactive: 8.77%
OC(COc1ccc2ccccc2c1Br)Cn1cnc(-c2ccccc2)c1 (centres undefined) | inconclusive: 36.1%
C=C(C)C(=O)O[C@H]1C/C(C)=C\C(=O)/C=C(\C)[C@H](O)[C@@H]2OC(=O)C(=C)[C@@H]21 | inconclusive: -73.3%
COC(=O)C1=CN(Cc2ccc(OC)c(OC)c2)C=C(C(=O)OC)C1c1ccccc1F | inconclusive: -40%
CCOC(=O)c1cc(CC)sc1/N=C/C1=C(O)CCCC1=O | inconclusive: 25%
Cc1ccc(NC(=O)c2cc(NC(=O)c3ccco3)ccc2N2CCOCC2)cc1 | inactive: -3%
O=C(CCc1ccccc1)Nc1cccc([N+](=O)[O-])c1 | inactive: -1.97%
CCC(NC(=S)NCc1ccccc1)C(=O)O (centres undefined) | inconclusive: 29.3%
CCOC(=O)CNC(=O)CSc1nnc(C)c(=O)[nH]1 | inconclusive: 0.444%
O=C1C=C(NCCN2CCOCC2)C(=O)c2cnccc21 | inconclusive: -36.1%
CN(C)S(=O)(=O)c1ccc(-c2csnn2)s1 | inconclusive: 8.51%
